Experimental data from PubChem BioAssay AID493083 (Broad Institute, 2011).
In all, about 2,400 compounds went through this assay and about 95 (4%) were called active. This list was built around the results that the source calls inconclusive (neither active nor inactive); the mix of calls is not that of the screen.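 How the source made its calls: active means compounds lowering signal whose fitted AC50 is at most ten times the top tested dose; inconclusive means flat fit with moderate inhibition, or poor curve fit; inactive means the rest.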

Assay: GFP reporter loss versus dox-driven RFP – NIH3T3 R4 cells, cherry-pick, set 3, dose response (AID 493083);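 further: 0% = neutral control wells and -100% = didemnin B positive control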
Conditions: NIH3T3 R4 HSF-1 GFP reporter, heat shock, 48 h; at 19.5 µM (top of the series)

Activity change, negative = inhibition, inconclusive:
Oc1ccc(Nc2nc3ccccc3nc2Nc2ccc(O)cc2)cc1 -40.5%
Cc1sc2ncnc(NCCc3ccc(S(N)(=O)=O)cc3)c2c1C 12.2%
COc1ccc(OC)c2sc(N(CCCN(C)C)C(=O)c3ccc(S(=O)(=O)N4CCc5ccccc5C4)cc3)nc12 -84%
COc1nn(-c2ccccc2)c(=O)c(Cl)c1Cl -76.5%
O=c1c(Cl)c(Cl)cnn1-c1ccccc1 -73.8%
COc1ccc(OC)c2c1C(=O)C(Cl)=C(Cl)C2=O -46.8%
CCOC(=O)N=Nc1c2ccccc2c2nc3no[nH]c3nc12 -61%
Cc1oc2c(c1C(=O)NCc1cccnc1)C(=O)c1ccccc1C2=O -60.7%
O=C(Nc1ccc(Cl)cc1)/C(=C/c1cccc(O)c1)c1nc2ccccc2s1 -3.26%
COc1ccc(C(=O)/C=C/C(=O)N(CC(=O)NC2CCCCC2)Cc2ccc(F)cc2)c(O)c1 -66.9%
COc1ccc(C(=O)c2c(C(F)(F)F)oc3c2C(=O)c2ccccc2C3=O)cc1 -56.9%
COc1cc(NC(=O)Cn2ncc(Cl)c(Cl)c2=O)c(C)cc1[N+](=O)[O-] -56.7%
O=C(NCc1ccc2c(c1)OCO2)c1nc(S(=O)(=O)Cc2ccccc2)ncc1Cl -83.8%
Cc1cccc(CS(=O)(=O)c2nnc([C@H](Cc3ccccc3)NC(=O)OC(C)(C)C)o2)c1 56.9%
O=C1C(Cl)=C(Nc2ccc3cn[nH]c3c2)C(=O)c2ccccc21 -67.6%
Cc1ccc(NC(=O)C2=C(c3ccccc3)S(=O)(=O)CCS2(=O)=O)cc1 -44.2%
CCOC(=O)COc1ccccc1/C=C\[N+](=O)[O-] -59.1%
CCS(=O)(=O)c1ncc(Cl)c(C(=O)Nc2ccc(S(=O)(=O)N3CCC(C)CC3)cc2)n1 -74.3%
Cc1ccc(/C=[N+](\[O-])c2ccc(N(C)C)cc2)c2nsnc12 -29.4%
O=S1(=O)C=C(Sc2nc3ccccc3s2)c2ccccc21 -56.3%
CCS(=O)(=O)c1ncc(Cl)c(C(=O)Nc2ccc(C)cc2)n1 164%
CCOC(=O)c1c(C)[nH]c(C(=O)OCC(=O)Nc2sccc2C(N)=O)c1C 137%
CC(C)c1nnc(NC(=O)c2nc(S(=O)(=O)Cc3ccc(F)cc3)ncc2Cl)s1 81.4%
CCC(=O)N1CCN(c2ccc(NC(=O)c3ccc([N+](=O)[O-])o3)cc2)CC1 -41.4%
CCOc1cc(/C=C\[N+](=O)[O-])ccc1OCC(=O)Nc1ccccc1C 61%
CS(=O)(=O)c1ccc(C(=O)OCc2nnc(-c3ccc(Cl)cc3)o2)cc1[N+](=O)[O-] -47%
Cc1ccc(-c2nc(NC(=O)c3nn(C)cc3[N+](=O)[O-])sc2C)cc1C 259%
CC(=O)OCCCNc1cc(Sc2ccc(C)cc2)c2nonc2c1[N+](=O)[O-] -77.5%
CS(=O)(=O)c1ccc(S(=O)CC(=O)OCc2ccccc2)c([N+](=O)[O-])c1 (configuration not stated) -77.9%
COc1cc(/C=C2\COC/C(=C\c3cc(OC)c(OC)c(OC)c3)C2=O)cc(OC)c1OC -59.2%

Activity change, negative = inhibition, inactive:
CC(=O)c1ccc(NC(=O)c2cnn3ccccc23)cc1 5.6%
CC(C)(C)C(CN1CCCC1)OC(=O)c1ccccc1 (configuration not stated) -1.59%
O=C1N=C(N2CCCC2)S/C1=C\C=C\c1ccccc1 7.74%
COc1ccc(C(=O)NNC(=O)c2ccccn2)cc1 1.89%
COc1ccc(C(=O)NC(=S)NNC(=O)c2ccco2)cc1 -5.87%
O=C(CCl)N1N=C(c2cccs2)CC1c1ccco1 (configuration not stated) 111%
NNC(=S)Nc1ccccc1Cl -2.15%
COc1cc(NS(=O)(=O)c2ccc(C)cc2)c2ncccc2c1 152%
N#Cc1c(N)n(-c2ccccc2N)c2nc3ccccc3nc12 -3.31%
CC(=O)Nc1cc[n+](C(C)C(=O)c2ccccc2)cc1 (configuration not stated) -10.5%
CCN(C1CCS(=O)(=O)C1)S(=O)(=O)c1cccs1 (configuration not stated) -2.59%
COc1ccc(-n2c(C)c(C(C)=O)c(C(C)=O)c2C)cc1 -9.69%
COc1ccc(/C=C/C(=O)NC(=S)NCCc2ccc(OC)c(OC)c2)cc1 0.071%
O=S1(=O)N[C@H](c2ccccc2)C[C@H](c2ccc(C(F)(F)F)cc2)O1 1.91%
CN(Cc1nc(-c2ccccc2)no1)C(=O)c1ccc2c(c1)OCO2 2.75%
CC(C)(C)N1[C@@H](CC(=O)O)c2cc(C(F)(F)F)ccc2S1(=O)=O 1.39%
O=C(NCc1ccncc1)c1ccc(Cl)c(S(=O)(=O)N2CCOCC2)c1 16.6%
O=C1C2CCCN2c2ccc(S(=O)(=O)N3CCOCC3)cc2N1Cc1cccc(C(F)(F)F)c1 (configuration not stated) 2.71%
Cc1ccc(OCC(=O)NCCNC(=O)c2ccco2)cc1C -0.642%
Cc1ccc(C(=O)Nc2cc3ccccc3oc2=O)cc1 -1.68%
N#CCCn1nnc(-c2ccccc2F)n1 -4.93%
O=[N+]([O-])c1ccc(Nc2ccc(F)cc2)cc1 0.888%
COc1ccc(NC(=O)CCc2nnc3ccc(N4CCC(C)CC4)nn23)cc1OC -0.697%
COc1ccc(N2CCN(C(=O)c3ccc(NS(=O)(=O)c4ccccc4)cc3)CC2)cc1 21.2%
COc1ccccc1N1CCN(C(=S)Nc2ccc(F)cc2)CC1 -0.471%
NC(=O)COC(=O)c1cc(=O)[nH]c2ccccc12 -4.28%
CC1CCN(CC(=O)NC2CCCCC2)CC1 -2.37%

Fetched by compound from above, 3 records:
Activity change, negative = inhibition, inactive:
O=S1(=O)N[C@H](c2ccccc2)C[C@H](c2ccc(C(F)(F)F)cc2)O1 1.91%
CC(C)(C)N1[C@@H](CC(=O)O)c2cc(C(F)(F)F)ccc2S1(=O)=O 1.39%
COc1cc(NS(=O)(=O)c2ccc(C)cc2)c2ncccc2c1 152%
